We go through 1 molecule from PMC12674131.

Amino acid sequences for entries named in this document (tags omitted).
UniProt P41209: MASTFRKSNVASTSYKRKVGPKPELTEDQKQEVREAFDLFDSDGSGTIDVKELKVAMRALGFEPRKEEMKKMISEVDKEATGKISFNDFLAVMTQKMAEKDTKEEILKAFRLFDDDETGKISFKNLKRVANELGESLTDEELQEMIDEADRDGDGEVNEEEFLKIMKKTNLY
UniProt Q9R1K9: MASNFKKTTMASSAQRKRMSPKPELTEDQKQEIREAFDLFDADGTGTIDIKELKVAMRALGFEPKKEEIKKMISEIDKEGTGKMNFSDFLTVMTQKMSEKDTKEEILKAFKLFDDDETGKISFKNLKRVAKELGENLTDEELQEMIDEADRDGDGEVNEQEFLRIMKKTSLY

These are yes or no findings as the source states them, for the method shown. Binding seen in cells or lysates may run through a third protein. Some results given as binding are weak or reduced against the parent protein; the word gives no strength.

The target of test [1] is mouse centrin1 (mouse) (UniProt P41209). Put plainly: co-IP; WT mouse testis extract (20 mM tris-HCl pH 7.5, 50 mM KCl, 5 mM MgCl2, 10% glycerol, 0.05% Triton X-100, 1 mM beta-mercaptoethanol) incubated 2 hours at 4°C with Dynabeads protein A carrying anti-centrin1 or anti-centrin2 antibodies or control IgG; washed with high-salt buffer (400 mM KCl); eluted with 0.1 M glycine pH 2.5; immunoblot. (Immunoblotting shows a protein as a band on a membrane.)

Test [2] deals with mouse centrin2 (mouse) (UniProt Q9R1K9). The description is as above.

B1: mouse POC5 (protein, UniProt Q9DBS8 1-558)
chain: MSSDEDKCSLHVAHNDSDRSVSTDLQEEYEELLRYAIVNPNVECSASQPSHLRGEVAPDRFPTLAGNNPVRDTELEVGKGSDLNISSHSKSGSPRKPSHPVMDFFSSHVLGDSSSPASLSTRTDAHEINGGEHLVSDENFQKLENILDIWSSGLKTNVLSELSKWRLNFIDWHRMEMKKEKEKHAVVVKQLSNQISDLKELQKAFEISIGRKDEVISNLSRAIGKQKERIELMKSFFRWRIGHVKSRQEIYEGKLADQYFQRTLLKKVWKGWRSVVQRQWKDVVERACQARAEEVCVQISNDYEARLAMLSGALENAKAEIQKMQQEKDHFEDSMKKAFMRGVCALNLEAMTIFQNKNEAGIDFTNNKKEESGPGGPGREPSAHLDTSSSTMPSAVPSQLLPSGPLAAGVASATAFPSAASLTSAGATSASSLHVPISILSAGSAAAPAPEESYAPRVVTAAQQKAGKTITARITGRSDFGSKARINSSLAIMGVSPPMGSVVVEKHHPVTVQTIPQATAAKYPRTIHPESSISASRSLGARPGHAQSLSVQSIKVVD
On to B1, for which the binding result in test [1] and in test [2] was “binds” in each case.
